Test results reported in the supplement of paper PMC8728848.
This is one part of the list.

Columns and labels:
Test in all cases: glycan array binding signal (z-score within array); higher = stronger binding
Conditions in all cases: glycan notation: IUPAC condensed, linker removed
[1] = molecular target: GlcNAc(b1-4)GlcNAc(b1-4)GlcNAc(b1-4)GlcNAc(b1-4)GlcNAc(b1-4)GlcNAc
Outline: (§1)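 Columns mapping to the same glycan were averaged after glycan names were converted to IUPAC-condensed notation. The data come from 3228 arrays in the Consortium for Functional Glycomics database, limited to those with an available protein sequence. Binding is reported as a within-array Z-score averaged across arrays of one protein sequence and across linkers.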

[2] = molecular target: GlcNAc(b1-4)[GlcNAc(b1-6)]GalNAc
Outline: as §1

[3] = molecular target: GlcNAc(b1-6)Gal(b1-4)GlcNAc
Outline: as §1

GlcNAc(b1-6)GalNAc = molecular target: GlcNAc(b1-6)GalNAc
Outline: as §1

[4] = molecular target: GlcNAc6S(b1-3)Gal(b1-4)GlcNAc
Outline: as §1

Kdn(a2-3)Gal(b1-3)GalNAc = molecular target: Kdn(a2-3)Gal(b1-3)GalNAc
Outline: as §1

Kdn(a2-3)Gal(b1-3)GlcNAc = molecular target: Kdn(a2-3)Gal(b1-3)GlcNAc
Outline: as §1

Kdn(a2-3)Gal(b1-4)Glc = molecular target: Kdn(a2-3)Gal(b1-4)Glc
Outline: as §1

Kdn(a2-3)Gal(b1-4)GlcNAc = molecular target: Kdn(a2-3)Gal(b1-4)GlcNAc
Outline: as §1

[5] = molecular target: Kdn(a2-3)Gal(b1-4)[Fuc(a1-3)]GlcNAc
Outline: as §1

Kdn(a2-6)Gal(b1-4)GlcNAc = molecular target: Kdn(a2-6)Gal(b1-4)GlcNAc
Outline: as §1

[6] = molecular target: Man(a1-2)Man(a1-2)Man(a1-3)Man
Outline: as §1

[7] = molecular target: Man(a1-2)Man(a1-2)Man(a1-6)[Man(a1-3)]Man
Outline: as §1

Man(a1-2)Man(a1-3)Man = molecular target: Man(a1-2)Man(a1-3)Man
Outline: as §1

[8] = molecular target: Man(a1-2)Man(a1-3)[Man(a1-2)Man(a1-6)]Man
Outline: as §1

[9] = molecular target: Man(a1-2)Man(a1-3)[Man(a1-2)Man(a1-6)]Man(a1-6)[Man(a1-2)Man(a1-2)Man(a1-3)]Man
Outline: as §1

[10] = molecular target: Man(a1-2)Man(a1-3)[Man(a1-2)Man(a1-6)]Man(a1-6)[Man(a1-2)Man(a1-2)Man(a1-3)]Man(b1-4)GlcNAc(b1-4)GlcNAc
Outline: as §1

[11] = molecular target: Man(a1-2)Man(a1-3)[Man(a1-6)]Man(a1-6)[Man(a1-2)Man(a1-3)]Man(b1-4)GlcNAc(b1-4)GlcNAc
Outline: as §1

[12] = molecular target: Man(a1-2)Man(a1-6)[Man(a1-3)]Man(a1-6)[Man(a1-2)Man(a1-2)Man(a1-3)]Man
Outline: as §1

[13] = molecular target: Man(a1-2)Man(a1-6)[Man(a1-3)]Man(a1-6)[Man(a1-2)Man(a1-2)Man(a1-3)]Man(b1-4)GlcNAc(b1-4)GlcNAc
Outline: as §1

Man(a1-3)[Man(a1-6)]Man = molecular target: Man(a1-3)[Man(a1-6)]Man
Outline: as §1

[14] = molecular target: Man(a1-3)[Man(a1-6)]Man(a1-6)[Man(a1-2)Man(a1-3)]Man(b1-4)GlcNAc(b1-4)GlcNAc
Outline: as §1

[15] = molecular target: Man(a1-3)[Man(a1-6)]Man(a1-6)[Man(a1-3)]Man
Outline: as §1

[16] = molecular target: Man(a1-3)[Man(a1-6)]Man(a1-6)[Man(a1-3)]Man(b1-4)GlcNAc(b1-4)GlcNAc
Outline: as §1

[17] = molecular target: Man(a1-3)[Man(a1-6)]Man(b1-4)GlcNAc(b1-4)GlcNAc
Outline: as §1

[18] = molecular target: Man(a1-3)[Man(a1-6)]Man(b1-4)GlcNAc(b1-4)[Fuc(a1-6)]GlcNAc
Outline: as §1

Man(a1-6)Man = molecular target: Man(a1-6)Man
Outline: as §1

Man(b1-4)GlcNAc = molecular target: Man(b1-4)GlcNAc
Outline: as §1

MurNAc(b1-4)GlcNAc = molecular target: MurNAc(b1-4)GlcNAc
Outline: as §1

Neu5Ac(a2-3)Gal = molecular target: Neu5Ac(a2-3)Gal
Outline: as §1

[19] = molecular target: Neu5Ac(a2-3)Gal(b1-3)GalNAc
Outline: as §1

[20] = molecular target: Neu5Ac(a2-3)Gal(b1-3)GalNAc(b1-3)Gal(a1-4)Gal(b1-4)Glc
Outline: as §1

[21] = molecular target: Neu5Ac(a2-3)Gal(b1-3)GalNAc(b1-4)Gal(b1-4)Glc
Outline: as §1

[22] = molecular target: Neu5Ac(a2-3)Gal(b1-3)GalNAc(b1-4)[Neu5Ac(a2-3)]Gal(b1-4)Glc
Outline: as §1

[23] = molecular target: Neu5Ac(a2-3)Gal(b1-3)GalNAc(b1-4)[Neu5Ac(a2-8)Neu5Ac(a2-3)]Gal(b1-4)Glc
Outline: as §1

[24] = molecular target: Neu5Ac(a2-3)Gal(b1-3)GalNAc6S
Outline: as §1

[25] = molecular target: Neu5Ac(a2-3)Gal(b1-3)GlcNAc
Outline: as §1

[26] = molecular target: Neu5Ac(a2-3)Gal(b1-3)GlcNAc(b1-2)Man
Outline: as §1

[27] = molecular target: Neu5Ac(a2-3)Gal(b1-3)GlcNAc(b1-2)Man(a1-3)[GlcNAc(b1-4)][Neu5Ac(a2-3)Gal(b1-3)GlcNAc(b1-2)Man(a1-6)]Man(b1-4)GlcNAc(b1-4)GlcNAc
Outline: as §1

[28] = molecular target: Neu5Ac(a2-3)Gal(b1-3)GlcNAc(b1-2)Man(a1-3)[Neu5Ac(a2-3)Gal(b1-3)GlcNAc(b1-2)Man(a1-6)]Man(b1-4)GlcNAc(b1-4)GlcNAc
Outline: as §1

[29] = molecular target: Neu5Ac(a2-3)Gal(b1-3)GlcNAc(b1-2)[Neu5Ac(a2-3)Gal(b1-3)GlcNAc(b1-4)]Man(a1-6)[Neu5Ac(a2-3)Gal(b1-3)GlcNAc(b1-2)Man(a1-3)]Man(b1-4)GlcNAc(b1-4)GlcNAc
Outline: as §1

[30] = molecular target: Neu5Ac(a2-3)Gal(b1-3)GlcNAc(b1-3)Gal(b1-3)GlcNAc
Outline: as §1

[31] = molecular target: Neu5Ac(a2-3)Gal(b1-3)GlcNAc(b1-3)Gal(b1-4)GlcNAc
Outline: as §1

[32] = molecular target: Neu5Ac(a2-3)Gal(b1-3)GlcNAc(b1-3)GalNAc
Outline: as §1

[33] = molecular target: Neu5Ac(a2-3)Gal(b1-3)GlcNAc(b1-6)GalNAc
Outline: as §1

B1: Mermaid2 (Stilbonema majum) (protein)
chain: MGSSHHHHHHSSGLVPRGSHMAASGWLRSPQGTVVKLYRRSLSWSKADEFCKDVDGRLVVDRTADMHLFLIKNVLKEKKSRVWVGLRRTAPHSRTWIWSDGTRQNEDDLNTNLWLRDEPNDAAGEEECALFMYSPWEKAWGLNDYLCRGGCRSYQFICEKGIR
- glycan array binding signal (z-score) [1]: 0.459
- glycan array binding signal (z-score) [2]: -0.383
- glycan array binding signal (z-score) [3]: 0.323
- glycan array binding signal (z-score) (GlcNAc(b1-6)GalNAc): -0.029
- glycan array binding signal (z-score) [4]: -0.623
- glycan array binding signal (z-score) (Kdn(a2-3)Gal(b1-3)GalNAc): -0.317
- glycan array binding signal (z-score) (Kdn(a2-3)Gal(b1-3)GlcNAc): 0.013
- glycan array binding signal (z-score) (Kdn(a2-3)Gal(b1-4)Glc): 0.675
- glycan array binding signal (z-score) (Kdn(a2-3)Gal(b1-4)GlcNAc): 1.56
- glycan array binding signal (z-score) [5]: 0.239
- glycan array binding signal (z-score) (Kdn(a2-6)Gal(b1-4)GlcNAc): -0.819
- glycan array binding signal (z-score) [6]: -0.558
- glycan array binding signal (z-score) [7]: -0.456
- glycan array binding signal (z-score) (Man(a1-2)Man(a1-3)Man): -0.419
- glycan array binding signal (z-score) [8]: -0.567
- glycan array binding signal (z-score) [9]: -0.786
- glycan array binding signal (z-score) [10]: 0.726
- glycan array binding signal (z-score) [11]: -0.537
- glycan array binding signal (z-score) [12]: -0.197
- glycan array binding signal (z-score) [13]: -0.4
- glycan array binding signal (z-score) (Man(a1-3)[Man(a1-6)]Man): 0.154
- glycan array binding signal (z-score) [14]: 0.111
- glycan array binding signal (z-score) [15]: 0.365
- glycan array binding signal (z-score) [16]: 0.45
- glycan array binding signal (z-score) [17]: 0.1
- glycan array binding signal (z-score) [18]: -0.73
- glycan array binding signal (z-score) (Man(a1-6)Man): 0.39
- glycan array binding signal (z-score) (Man(b1-4)GlcNAc): 5.41
- glycan array binding signal (z-score) (MurNAc(b1-4)GlcNAc): 0.347
- glycan array binding signal (z-score) (Neu5Ac(a2-3)Gal): -0.332
- glycan array binding signal (z-score) [19]: -0.437
- glycan array binding signal (z-score) [20]: -0.77
- glycan array binding signal (z-score) [21]: -0.077
- glycan array binding signal (z-score) [22]: 0.543
- glycan array binding signal (z-score) [23]: -0.608
- glycan array binding signal (z-score) [24]: -0.554
- glycan array binding signal (z-score) [25]: -0.412
- glycan array binding signal (z-score) [26]: -0.619
- glycan array binding signal (z-score) [27]: -0.7
- glycan array binding signal (z-score) [28]: 2.25
- glycan array binding signal (z-score) [29]: -0.509
- glycan array binding signal (z-score) [30]: -0.329
- glycan array binding signal (z-score) [31]: 0.154
- glycan array binding signal (z-score) [32]: -0.638
- glycan array binding signal (z-score) [33]: -0.189
